Results deposited as PubChem BioAssay AID504793 (Drosophila RNAi Screening Center, 2011).
The deposit covers about 23,000 reagents; this is a random part of those with a known target gene and a result. Of all reagents, 62 (0.27%) got an active call. 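Calls come from follow-up tests whose scores are not deposited, so confirmed genes may have low counts here; counts are not normalised per plate.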 The raw values are shown without normalisation.

Purpose: 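Genes required for cells to halt at G2/M after double-strand DNA breaks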 (primary screen)
System: Drosophila S2R+ cells
Knock-down reagent: long dsRNA against Drosophila genes, about 0.25 µg dsRNA per well
Duration: 4 days of dsRNA, then 4 hours of drug before read-out
Treatment: doxorubicin 0.5 µM for 4 hours to cause double-strand breaks, in cells also given a low, harmless dose of dsRNA against nbs to sensitise the assay
Measurement: 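Per-well count of mitotic cells stained for phospho-histone H3 after doxorubicin exposure, used as mitotic index; counts are raw and not normalised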
Direction: mitotic cells: higher = more cells in mitosis, weaker G2 arrest
Call rule: 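a call needs confirmation in secondary tests, with other dsRNAs and a check of mitotic timing without damage, not just a high primary count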
Meaning of the calls: active = confirmed in follow-up tests; inactive = not confirmed

Gene	PubChem SID	mitotic cells, replicate 1	call
Cpr66D	SID104202535	4	inactive
Cpr66D	SID104204469	7	inactive
CG10353	SID104199146	12	inactive
CG10353	SID104208432	4	inactive
CG8611	SID104199132	6	inactive
CG8611	SID104203301	4	inactive
CG17564	SID104182418	4	inactive
CG17564	SID104205086	6	inactive
CG15208	SID104199446	5	inactive
scb	SID104185334	6	inactive
scb	SID104187470	7	inactive
ppk19	SID104195113	16	inactive
Smyd5	SID104195275	7	inactive
CG14022	SID104182144	3	inactive
CG14022	SID104205944	8	inactive
CG11699	SID104199211	12	inactive
CG11699	SID104206033	1	inactive
CG42288	SID104186173	7	inactive
CG42288	SID104205192	6	inactive
CG7910	SID104196133	5	inactive
CG3032	SID104198058	14	inactive
CG3032	SID104203185	11	inactive
MICU3	SID104193173	5	inactive
MICU3	SID104195405	4	inactive
mura	SID104202502	17	inactive
mura	SID104205189	4	inactive
Dhc64C	SID104188448	60	inactive
Dhc64C	SID104204042	128	inactive
CG2577	SID104199655	7	inactive
CG2577	SID104202666	10	inactive
CG2577	SID104204866	3	inactive
Pex11ab	SID104186937	5	inactive
Best3	SID104189672		inactive
msl-2	SID104180621	5	inactive
msl-2	SID104206752	6	inactive
CG4972	SID104182590	6	inactive
v	SID104200175	4	inactive
CG33292 (retired record)	SID104202280	7	inactive
CG33292 (retired record)	SID104207160	5	inactive
CG12395	SID104199245	15	inactive
cona	SID104196073	9	inactive
RpS21	SID104180625	6	inactive
RpS21	SID104206778	3	inactive
Nlg3	SID104192316	2	inactive
Nlg3	SID104192332	4	inactive
Nlg3	SID104192366	5	inactive
Nlg3	SID104204222	5	inactive

Records listed so far whose gene name begins with N or n:
Gene	PubChem SID	mitotic cells, replicate 1	call
Nlg3	SID104192316	2	inactive
Nlg3	SID104192332	4	inactive
Nlg3	SID104192366	5	inactive
Nlg3	SID104204222	5	inactive
